Results are given in words; binding and its absence hold for the method and conditions named. Some binding calls cover weakened binding; strength is not graded here.
Target: T1, Kir6.2 from Mus musculus (mmKir6.2) H175K mutant, as the Kir6.2 subunit of H175K_(cryoEM) (Mus musculus) (UniProt Q61743)
T1 sequence: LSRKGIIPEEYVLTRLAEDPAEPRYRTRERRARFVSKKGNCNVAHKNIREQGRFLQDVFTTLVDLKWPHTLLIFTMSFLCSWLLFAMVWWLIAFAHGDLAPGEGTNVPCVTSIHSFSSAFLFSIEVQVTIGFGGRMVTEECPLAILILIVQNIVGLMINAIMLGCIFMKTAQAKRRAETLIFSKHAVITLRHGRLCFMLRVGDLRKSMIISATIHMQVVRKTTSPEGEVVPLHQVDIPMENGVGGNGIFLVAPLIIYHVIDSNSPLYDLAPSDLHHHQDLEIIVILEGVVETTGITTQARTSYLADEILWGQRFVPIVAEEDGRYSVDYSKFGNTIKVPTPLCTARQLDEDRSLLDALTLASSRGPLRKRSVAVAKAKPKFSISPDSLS
Assay: cryo-EM structure

The chains behind the UniProt entries cited, without tags or fusion partners.
UniProt A0A1U7R319: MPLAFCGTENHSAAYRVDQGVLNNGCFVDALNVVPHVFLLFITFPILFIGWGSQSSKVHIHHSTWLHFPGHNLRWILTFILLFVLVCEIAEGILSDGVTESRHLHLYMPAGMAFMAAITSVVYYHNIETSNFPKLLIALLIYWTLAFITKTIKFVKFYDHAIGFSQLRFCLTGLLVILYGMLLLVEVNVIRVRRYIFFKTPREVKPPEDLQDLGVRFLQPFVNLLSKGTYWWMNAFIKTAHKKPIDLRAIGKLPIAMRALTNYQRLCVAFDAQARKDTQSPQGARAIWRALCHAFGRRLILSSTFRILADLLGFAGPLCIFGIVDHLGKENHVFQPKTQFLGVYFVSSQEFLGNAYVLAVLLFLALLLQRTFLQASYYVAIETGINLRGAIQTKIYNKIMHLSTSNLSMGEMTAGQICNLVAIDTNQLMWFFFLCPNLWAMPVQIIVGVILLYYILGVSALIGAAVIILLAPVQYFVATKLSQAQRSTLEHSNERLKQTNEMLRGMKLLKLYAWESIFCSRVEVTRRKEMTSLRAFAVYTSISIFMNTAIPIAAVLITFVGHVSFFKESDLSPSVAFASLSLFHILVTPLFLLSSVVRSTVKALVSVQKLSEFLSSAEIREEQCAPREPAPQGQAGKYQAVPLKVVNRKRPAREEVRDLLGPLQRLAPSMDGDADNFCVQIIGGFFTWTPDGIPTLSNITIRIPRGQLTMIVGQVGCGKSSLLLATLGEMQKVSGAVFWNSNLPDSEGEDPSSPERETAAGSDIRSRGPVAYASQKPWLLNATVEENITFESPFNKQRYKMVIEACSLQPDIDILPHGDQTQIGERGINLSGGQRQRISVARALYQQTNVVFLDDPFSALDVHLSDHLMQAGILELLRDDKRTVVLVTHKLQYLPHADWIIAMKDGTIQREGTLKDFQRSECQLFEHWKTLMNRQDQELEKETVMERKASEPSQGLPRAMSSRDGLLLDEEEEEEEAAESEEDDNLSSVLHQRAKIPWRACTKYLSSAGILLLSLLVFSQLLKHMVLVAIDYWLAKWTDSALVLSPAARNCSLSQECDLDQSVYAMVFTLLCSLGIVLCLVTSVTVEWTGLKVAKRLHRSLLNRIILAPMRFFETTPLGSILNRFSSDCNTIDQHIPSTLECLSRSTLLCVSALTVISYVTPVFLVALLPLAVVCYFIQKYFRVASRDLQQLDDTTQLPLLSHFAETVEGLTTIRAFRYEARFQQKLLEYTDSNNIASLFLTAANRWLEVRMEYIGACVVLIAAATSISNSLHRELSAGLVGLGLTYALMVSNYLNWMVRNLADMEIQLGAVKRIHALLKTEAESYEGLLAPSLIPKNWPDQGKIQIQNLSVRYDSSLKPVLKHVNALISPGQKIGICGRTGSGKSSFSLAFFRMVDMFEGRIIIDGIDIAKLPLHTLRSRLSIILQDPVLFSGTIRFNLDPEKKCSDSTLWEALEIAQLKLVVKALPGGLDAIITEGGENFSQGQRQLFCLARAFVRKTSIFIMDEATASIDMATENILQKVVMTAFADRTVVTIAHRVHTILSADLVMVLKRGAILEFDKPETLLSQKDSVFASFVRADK

Substance: SUR1 from Mesocricetus auratus (maSUR1), as the SUR1 subunit of H175K_(cryoEM) (from UniProt A0A1U7R319)
- binding: binds

— doi:10.1101/2021.11.29.470334 (bioRxiv, 2021)
